# According to PubChem BioAssay AID540276 (National Center for Advancing Translational Sciences (NCATS), 2011):
# The whole screen tested about 300,000 compounds, of which about 5,400 (1.8%) were called active. The inconclusive results got no clear call from the source; some entries with a clear call stand among them for comparison. The call rests on the fitted dose curve; tested in HEK293 cells. Where the call is inconclusive, the potency comes from a doubtful curve fit.
# Assay: qHTS for inhibitors of binding or entry into cells for Marburg Virus
# Conditions: Marburg virus pseudotyped entry inhibition, cell reporter; series mostly up to 37.8 µM
# Potency means the concentration at half of the fitted maximal effect.
row,Structure (SMILES),Potency
1,CCc1nc(C)ccc1OCC(=O)O,"inconclusive: 12.6 µM [activator, partial curve, poor fit]"
2,O=C1[C@@H]2[C@@H]3C[C@@H]([C@H]4ON=C(c5ccc(Cl)cc5)[C@@H]34)[C@@H]2C(=O)N1c1ccc2c(c1)OCO2,"inconclusive: 0.355 µM [activator, partial curve, poor fit]"
3,Cn1cnc2c(SCc3ccccc3)ncnc21,"inconclusive: 0.562 µM [activator, full curve, poor fit]"
4,Cc1sc(NC(=S)NC(=O)C(C)(C)C)c(C(N)=O)c1C,"inconclusive: 32.6 µM [activator, partial curve, poor fit]"
5,Cc1cc(C)c(Cn2c3ccccc3c3cnn(CC(=O)NCC(C)c4ccccc4)c(=O)c32)c(C)c1 (stereo unspecified),"inconclusive: 0.891 µM [inhibitor, full curve, poor fit]"
6,O=C(O)CCC(NC(=O)OCc1ccccc1)C(=O)O (stereo unspecified),"inconclusive: 1.26 µM [activator, single point]"
7,Cc1ccc(-n2c(O)c(/C=N/Nc3ccccc3)c(=O)[nH]c2=O)cc1C,"inconclusive: 5.62 µM [inhibitor, full curve]"
8,COCCOc1ccc(C(F)(F)F)cc1NC(=O)c1ccccc1,inactive
9,Cc1ccc(SCCSc2ncccn2)cc1,"inconclusive: 31.6 µM [inhibitor, single point]"
10,CCCCNC(=O)Nc1cnn(CC)c1C(N)=O,inactive
11,COC(=O)c1ccc(C(=O)N2CCCC(Nc3ccc(F)c(F)c3)C2)cc1 (stereo unspecified),inactive
12,CCC(C)SCc1nc2ccccc2[nH]1 (stereo unspecified),inactive
13,CCc1nnc(NC(=O)c2ccc(-c3ccccc3F)o2)s1,inactive
14,CCC(C(=O)Nc1c2c(nn1C(C)(C)C)CS(=O)(=O)C2)c1ccccc1 (stereo unspecified),inactive
15,CC[N+](C)(CC)CC(O)COCC1COc2ccccc2O1 (stereo unspecified),"inconclusive: 3.16 µM [inhibitor, single point]"
16,CC(C)(C)NC(=O)C(=O)N/N=C/c1cccs1,"inconclusive: 4.61 µM [activator, full curve, poor fit]"
17,CC(=O)N1CCN(c2ccccc2NC(=O)c2ccc(-c3cccc([N+](=O)[O-])c3)o2)CC1,"inconclusive: 3.55 µM [inhibitor, single point]"
18,O=S(=O)(Cc1cc(Cl)nc(-c2cccnc2)n1)c1ccccc1,"inconclusive: 8.91 µM [inhibitor, partial curve, poor fit]"
19,O=C(COc1ccc(S(=O)(=O)NC2CCCCC2)cc1Cl)Nc1ccc2c(c1)OCO2,"inconclusive: 29.1 µM [inhibitor, single point]"
20,O=C(N/N=C/c1ccc(O)cc1O)c1ccc(CN2C(=O)c3cccc4cccc2c34)cc1,active: 3.16 µM
21,Cc1oc2c(CN3CCCCC3)c(O)ccc2c(=O)c1-c1ccc(Br)cc1,inactive
22,O=C(c1ccccn1)N1CCN(S(=O)(=O)c2cccc(Br)c2)CC1,"inconclusive: 0.708 µM [inhibitor, partial curve, poor fit]"

row,Structure (SMILES),Potency
1,O=C(NCc1ccccc1F)c1ccc(S(=O)(=O)NCc2ccco2)cc1,inactive
2,Cc1ccc(NC(=O)c2cccc(S(=O)(=O)N3CCN(C)CC3)c2)cc1F,"inconclusive: 28.2 µM [inhibitor, single point]"
3,O=C(Nc1ccccc1)Nc1cc(OCC(F)(F)F)cc(OCC(F)(F)F)c1,"inconclusive: 11.2 µM [inhibitor, partial curve, poor fit]"
4,CCCC(=O)Nc1ccc2nc(SCc3ccc(C)cc3)sc2c1,"inconclusive: 6.31 µM [inhibitor, single point]"
5,O=C1N(CC(=O)N2CCc3ccccc32)CCN1Cc1ccc(Cl)cc1,"inconclusive: 0.316 µM [inhibitor, full curve, poor fit]"
6,O=S(=O)(c1ccccc1)N1CN(c2ccc(F)cc2F)c2nc3ccccc3nc21,"inconclusive: 8.91 µM [inhibitor, partial curve]"
7,O=Nc1[nH]c(=O)c(/C=C(\O)c2ccccc2)nc1NO,"inconclusive: 11.2 µM [inhibitor, partial curve, poor fit]"
8,CCCCC(O)(CCCC)C(=O)N/N=C(\C)c1ccc(Cl)cc1,active: 11.2 µM
9,Cc1ccc(-c2cc3nc(C)cc(NCc4ccco4)n3n2)cc1,"inconclusive: 29.1 µM [activator, single point]"
10,Cc1cc2nc(-c3ccc(SCc4ccccc4C#N)nc3)[nH]c2cc1C,"inconclusive: 23.1 µM [inhibitor, single point]"
11,O=C1C(NS(=O)(=O)c2ccc(Cl)cc2)=C(N2CCCCC2)C(=O)c2ccccc21,"inconclusive: 11.2 µM [inhibitor, single point]"
12,C/C(=N/OC(=O)CC(C)C)c1cc(-c2ccc(Cl)cc2)no1,inactive
13,CC(C)NC(=S)N/N=C/c1ccc(C(C)(C)C)cc1,"inconclusive: 35.5 µM [inhibitor, single point]"
14,CC(C)c1ccc2[nH]c3nc(SCC(=O)NC4CC4)nnc3c2c1,"inconclusive: 35.5 µM [inhibitor, single point]"
15,Cc1nc(NC(=O)c2cnccn2)ccc1Br,inactive
16,O=C(C=Cc1ccccc1O)c1ccccc1O,"inconclusive: 35.5 µM [inhibitor, single point]"
17,CCn1c(=O)cc(SCC(=O)NCc2ccc(C)cc2)c2ccccc21,inactive
18,O=C(NCc1ccco1)c1ccc2c(c1)N(Cc1ccccc1F)C(=O)c1ccccc1S2(=O)=O,inactive
19,O=C(O)C1CC=CCC1C(=O)Nc1ccc(N2CCN(Cc3ccccc3)CC2)cc1 (stereo unspecified),"inconclusive: 5.62 µM [activator, single point]"
20,C/C=C/C1=CC2=CC(=O)C(C)(OC(=O)c3c(C)cc(O)cc3O)C(=O)C2=CO1 (stereo unspecified),"inconclusive: 0.075 µM [activator, partial curve, poor fit]"
21,COc1ccccc1CC(=O)Nc1nc(-c2ccc(F)c(F)c2)cs1,"inconclusive: 7.94 µM [inhibitor, partial curve, poor fit]"
22,O=C(Nc1cccc2ccccc12)N1CC=C(c2ccccc2)CC1,"inconclusive: 20.6 µM [inhibitor, single point]"

row,Structure (SMILES),Potency
1,C=CCOc1c(CCC)cc(CCC)cc1C(N)=O,"inconclusive: 35.5 µM [inhibitor, single point]"
2,COCCCN1CCN(c2nnc3n2-c2sc(Br)cc2C(c2ccccc2Cl)=NC3)CC1,"inconclusive: 35.5 µM [activator, single point]"
3,CS(=O)(=O)N(Cc1ccc(Cl)cc1)c1ccc(C(=O)NCCSc2ccccn2)cc1,"inconclusive: 29.1 µM [inhibitor, partial curve, poor fit]"
4,O=C(NCc1ccc(Cl)cc1)c1ccc2c(c1)N(Cc1ccccc1F)C(=O)c1ccccc1S2=O (stereo unspecified),"inconclusive: 0.562 µM [inhibitor, full curve, poor fit]"
5,COC(=O)[C@@H]1CCCN1C(=O)CCc1nnc(CCc2c[nH]c3ccccc23)o1,inactive
6,O=C(COC(=O)c1c2c(nc3ccccc13)CCCCC2)NCc1ccc2c(c1)OCO2,"inconclusive: 7.08 µM [inhibitor, partial curve, poor fit]"
7,CC1CCCCN1S(=O)(=O)c1ccc(C(=O)N(CCCN(C)C)c2nc3ccc(Br)cc3s2)cc1 (stereo unspecified),"inconclusive: 7.08 µM [inhibitor, partial curve, poor fit]"
8,CCn1cnc2cc(NC(=O)c3ccco3)ccc21,inactive
9,Cc1ccccc1CN1CCN(CC(=O)NCc2ccc3c(c2)OCO3)C1=O,inactive
10,O=C(Nc1ccc(N2CCOCC2)cc1)C1CCN(S(=O)(=O)Cc2ccccc2)CC1,inactive
11,O=C(c1ccc(Cl)cc1)c1cn(Cc2ccccc2)c2cc3c(cc2c1=O)OCCO3,"inconclusive: 28.2 µM [inhibitor, single point]"
12,COc1ccc(N(C)C(=O)c2cc3c(s2)-c2ccccc2OC3)cc1,"inconclusive: 25.1 µM [inhibitor, single point]"
13,Cc1ccc(Cl)cc1N1CCN(C(=O)C2CCCN(Cc3nc(-c4cccc(Cl)c4)oc3C)C2)CC1 (stereo unspecified),inactive
14,Cc1ccc(N2CC(C(=O)Nc3cc(C(F)(F)F)ccc3N3CCCC3)CC2=O)cc1 (stereo unspecified),"inconclusive: 22.4 µM [inhibitor, single point]"
15,O=C(Nc1ccc(Br)cn1)C1CCN(S(=O)(=O)c2cccs2)CC1,"inconclusive: 1.64 µM [inhibitor, full curve]"
16,Cc1ccc(OCC(=O)NC(=S)Nc2cccc(NC(=O)c3ccccc3)c2)cc1,"inconclusive: 15.8 µM [inhibitor, partial curve, poor fit]"
17,Cc1c(C(=O)Nc2ccc(-c3nnc4n3CCCCC4)cc2)oc2ccc(Br)cc12,"inconclusive: 29.1 µM [inhibitor, single point]"
18,O=C(c1cccc(F)c1)N1CCN(c2cc(N3CCCCC3)c(F)cc2[N+](=O)[O-])CC1,"inconclusive: 25.9 µM [inhibitor, partial curve, poor fit]"
19,O=C(CCn1nnc2ccccc21)OCC(=O)c1ccc(F)cc1,inactive
20,COc1ccc(S(=O)(=O)N(CC(=O)NC2CCCC2)c2ccccc2OC)cc1,"inconclusive: 1.26 µM [inhibitor, partial curve, poor fit]"
21,Cc1ccc(NC(=O)COc2cccc3c2OC(C)(C)C3)c(O)c1,"inconclusive: 12.6 µM [inhibitor, partial curve, poor fit]"
22,CCOCCOC(=O)C1=C(C)N(C)C(=O)NC1c1cc(Cl)c(O)c(OC)c1 (stereo unspecified),"inconclusive: 29.1 µM [inhibitor, single point]"
